# Measured values from the supplement of paper PMC3334620.
# The full ranking holds about 33,000 sequences; the median of “E-score (-0.5 to 0.5)” is about -0.0014, and the highest 2% start at about 0.25. The list shows a part of the results.
# Biological target: T1, Cad1 (UniProt P24813)
# T1 sequence: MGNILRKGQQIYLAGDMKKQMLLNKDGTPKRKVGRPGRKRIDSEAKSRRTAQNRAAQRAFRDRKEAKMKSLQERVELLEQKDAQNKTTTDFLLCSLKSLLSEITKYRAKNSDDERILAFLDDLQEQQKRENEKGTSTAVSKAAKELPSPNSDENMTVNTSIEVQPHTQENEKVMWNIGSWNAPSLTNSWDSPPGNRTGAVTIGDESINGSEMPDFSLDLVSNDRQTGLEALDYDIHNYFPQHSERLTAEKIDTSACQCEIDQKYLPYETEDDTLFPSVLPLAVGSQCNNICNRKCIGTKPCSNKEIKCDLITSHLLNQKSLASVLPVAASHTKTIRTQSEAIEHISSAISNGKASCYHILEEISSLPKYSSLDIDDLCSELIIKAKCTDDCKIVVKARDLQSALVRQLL
# Test: PBM E-score (8-mer binding enrichment) (E-score (-0.5 to 0.5)); higher = stronger / more preferred TF binding
# Conditions: protein concentration: 100 nM; construct: GST-full length
# How it was run: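 Detection of bound protein used fluorescent anti-GST, with scans normalised by masliner. The proteins were GST-tagged yeast transcription factors applied at about 100-200 nM to universal all-10-mer Agilent arrays made double-stranded by primer extension. Each ungapped eight-base word, pooled with its reverse complement, was scored with an E-score from the Universal PBM Analysis Suite.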
row,Sequence,PBM E-score
1,CACGACCC,0.0135
2,CGTCTATA,-0.102
3,ACAGTAGT,0.0284
4,AACCTAGT,-0.18
5,ATTTTTAC,0.0299
6,ACTGTGTG,-0.08
7,ATGTTGTA,0.11
8,AGCTGCTG,-0.00461
9,CTTTCCCC,0.00042
10,ACTGAAAC,0.177
11,ACACAAAA,0.0974
12,CCGTCAGA,-0.347
13,CCGCCGGC,0.128
14,AGTCTGAT,-0.0546
15,CGAGGACA,0.0161
16,GAGACACC,-0.136
17,GCCGATGA,0.0997
18,GGCTTCAC,-0.141
19,ATGCCCAA,-0.109
20,ACGCGATC,0.0805
21,CATATAGA,0.0853
22,ATCTGGTG,0.0268
23,CTTCTCGA,0.0254
24,CTAAACGA,-0.0962
25,AACGCCGG,-0.0998

row,Sequence,PBM E-score
1,GGAAAGGA,-0.162
2,AAGTGTGT,-0.0303
3,GACCTAAC,0.181
4,ATACCGAC,-0.186
5,CCAACTGG,0.025
6,ATTAACTA,-0.00319
7,ACTCGTAC,-0.152
8,GGCTAACA,0.0256
9,GCTGAGTA,0.17
10,ATATACCA,-0.00731
11,ATTAATGG,0.239
12,GGATCATA,-0.175
13,TAGGTGGA,-0.0227
14,CCATATAG,-1e-05
15,CGACCAAA,0.199
16,CGTATGGA,-0.0745
17,AACTAGTT,0.201
18,GTTCTCCA,0.00521
19,AAATATAC,-0.0915
20,AGTGGCTG,-0.156
21,AGGCCTGA,0.106
22,CACACTTA,0.0458
23,GCAACGTA,0.0255
24,GAGGAGTA,-0.168
25,AGCACTAT,-0.0481

# An excerpt of these results, with bars between the fields.
row | Sequence | PBM E-score
9 | GCTGAGTA | 0.17
10 | ATATACCA | -0.00731
11 | ATTAATGG | 0.239
12 | GGATCATA | -0.175
13 | TAGGTGGA | -0.0227
14 | CCATATAG | -1e-05

# (listing goes on)

row,Sequence,PBM E-score
1,ATCGAATG,0.02
2,CTATGTAA,0.0659
3,CGATCCAA,-0.0601
4,AATAACGC,-0.0922
5,ACAACATC,0.0648
6,TATATTGA,0.146
7,ATCCGATC,0.16
8,GCTTATCA,0.0614
9,CTAAAAGA,-0.0602
10,CCTAAGTA,-0.0327
11,AACGGCCT,0.0329
12,CCGGTGTA,-0.0814
13,AGTTAGAA,0.00448
14,AGTCTATC,-0.059
15,CCCTTAAG,-0.0886
16,GGTGAACC,-0.0269
17,CTCGTGGC,-0.138
18,CCCCGATA,-0.115
19,ACTGCACG,-0.039
20,CGCTCGTC,-0.0724
21,CGCTCCAA,0.0125
22,ACGTTTCC,-0.0254
23,CGTCCGCA,-0.0396
24,GATGATTA,0.126
25,TCGAGGAA,-0.132

row,Sequence,PBM E-score
1,CCCCGAGA,-0.138
2,GCCTACAA,0.00887
3,AACACTTG,-0.0256
4,GTTCTAAA,-0.0174
5,CGGAGTTA,0.0713
6,AGAGAGGG,-0.23
7,CATGCAGC,0.0258
8,GGAGTGCC,-0.0729
9,AGAAGCTC,-0.0135
10,CATAAGAG,0.184
11,AACGGTGG,-0.179
12,ACCGGGCA,-0.197
13,ATGCCTCG,0.034
14,AAAGCTGC,0.0487
15,ATCTTCCC,-0.129
16,CCAAGATC,0.0415
17,GTCAATCA,-0.138
18,AAATGTCT,0.0517
19,AATGAGCC,-0.164
20,GCCCGACA,0.0828
21,ACGATGAC,0.0549
22,CGCGTCCG,0.0408
23,AACCGATG,-0.108
24,GGGATAAC,-0.0389
25,AATAGGCT,-0.0189

row,Sequence,PBM E-score
1,AAGACCCG,-0.103
2,CAAATGCC,-0.0328
3,CCGAGCGA,0.139
4,CCTGTTGC,-0.00892
5,GTCGGCAA,-0.0595
6,GGGTCTCA,-0.204
7,CAGCGCCC,-0.15
8,CTAATTGC,0.113
9,CGATTTGA,0.1
10,GACCCCGA,-0.0428
11,GGGTGGAC,-0.0138
12,AGCTGCAA,-0.0573
13,ACCGACTA,-0.195
14,GGGCCTCA,-0.0631
15,GGAGCTTA,-0.171
16,ACTTTATC,0.0979
17,GAACTCCC,-0.0748
18,GGGCTAGA,-0.00541
19,AATGCTAT,0.156
20,AAACCGTC,0.0249
21,TACTTCGA,0.112
22,ACGTAAAC,-0.148
23,TCGAAAAA,0.16
24,AGGCATGA,-0.191
25,ACTCCTCC,-0.204

row,Sequence,PBM E-score
1,TCTCCTAA,-0.0727
2,AAGCCTCA,-0.227
3,GGTTCCAA,0.0424
4,ACAACTAG,-0.208
5,AACAGCGC,0.0746
6,AGGTCGAT,0.0315
7,GGCTTCCC,-0.0469
8,GATACGAC,-0.0168
9,ATCCGCCA,0.0883
10,GATATCGA,0.116
11,GAACCAAC,0.125
12,ACTCTTAG,-0.0625
13,GATCTCCA,0.0144
14,AAGAATCT,-0.159
15,GACACCCA,-0.0438
16,GGGCCAGA,-0.22
17,ACGTTCAT,-0.0396
18,AAGTCACA,-0.0461
19,CAAACGCC,-0.0333
20,CAGACGAC,-0.148
21,ACGTTAGA,0.0379
22,CCCAACAG,-0.0812
23,GTCACGAC,0.0662
24,ATAACCAC,0.002
25,ATTGGAGC,0.187

row,Sequence,PBM E-score
1,AAATCAGT,-0.00821
2,CGCCGTTA,-0.0315
3,GGAATGAC,-0.179
4,GGTTCCCA,-0.137
5,CCTCCACA,0.0108
6,CAAGTTGC,0.0548
7,GAACAGGA,-0.125
8,ATGTCTAA,0.0799
9,AGTGATAC,0.0976
10,AGTACCTC,-0.046
11,GTTTAACA,0.00608
12,GTGCCTTA,-0.0832
13,CACTGAGC,-0.0366
14,GTGAGAAC,-0.0529
15,AGCAACCC,-0.118
16,ATTAATTC,0.304
17,AGGGATCA,-0.0797
18,CCCTCAAA,-0.148
19,GTAAAGAC,0.0424
20,AACGGGGT,-0.13
21,AAAGGACA,-0.0819
22,CGGAAACC,-0.0235
